Measured values as given in PMC8642553.
Results are given in words; binding and its absence hold for the method and conditions named. In cells and extracts the contact can be indirect. Some results given as binding are weak or reduced against the parent protein; the word gives no strength.

By UniProt entry, the sequences of proteins in these tests, tags left out. Where a name states a change or a piece, a line headed by the entry shows the natural chain unless it says otherwise.
UniProt Q61188: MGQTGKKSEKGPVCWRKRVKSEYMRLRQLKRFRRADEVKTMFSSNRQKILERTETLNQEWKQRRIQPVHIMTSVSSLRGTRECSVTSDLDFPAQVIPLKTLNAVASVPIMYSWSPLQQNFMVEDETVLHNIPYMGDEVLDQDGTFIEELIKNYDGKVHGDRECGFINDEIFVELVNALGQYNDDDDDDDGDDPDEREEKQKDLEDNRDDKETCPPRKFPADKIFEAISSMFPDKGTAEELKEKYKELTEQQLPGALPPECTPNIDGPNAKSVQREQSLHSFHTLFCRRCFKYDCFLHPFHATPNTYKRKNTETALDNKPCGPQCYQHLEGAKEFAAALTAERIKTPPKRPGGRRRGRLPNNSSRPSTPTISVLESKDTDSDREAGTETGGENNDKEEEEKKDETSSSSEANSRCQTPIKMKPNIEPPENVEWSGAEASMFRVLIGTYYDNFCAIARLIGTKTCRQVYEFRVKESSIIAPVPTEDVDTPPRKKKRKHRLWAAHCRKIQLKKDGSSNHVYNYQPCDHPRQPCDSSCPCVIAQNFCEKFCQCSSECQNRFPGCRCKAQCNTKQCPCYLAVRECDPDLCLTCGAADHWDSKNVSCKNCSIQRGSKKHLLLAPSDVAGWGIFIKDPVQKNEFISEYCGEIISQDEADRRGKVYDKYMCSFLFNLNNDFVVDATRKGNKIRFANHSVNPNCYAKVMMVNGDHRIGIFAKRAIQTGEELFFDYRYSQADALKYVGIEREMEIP

Target: EZH2 (endogenous, mouse lung tumors) (mouse (endogenous in conditional KRAS-G12D mouse lung tumors)) (UniProt Q61188)
Experiment: co-IP; lung tumor extracts of the conditional KRAS-G12D mouse; IP with EZH2 or mock IgG antibodies, IB with DLC1 antibodies

B1: DLC1 (endogenous, mouse lung tumors) (protein, UniProt Q9R0Z9 1-1092)
chain: MCRDEPDTMILTQIEAKEACDWLRVTGFPQYAQLYEDLLFPVDIALVKREHDFLDRDAIEALCRRLNTLNKCAVMKLEISPHRKRSEDSDEDEPCAISGKWTFQRDSKRWSRLEEFDVFFPKQDPIPGSPDNSRLQSATSHESMLTDLSEHQEVASVRSLSSTSSSVPTHAAHSGDATTPRTNSVISVCSSGHFVGNDDSFSSLPSPKELSSFSFSMKGHHEKNTKSKTRSLLKRMESLKLKGSHHSKHKAPSKLGLIISAPILQEGMDEAKLKQLNCVEISALNGNHINVPMVRKRSVSNSTQTSSSSSQSETSSAVSTPSPVTRTRSLSTCNKRVGMYLEGFDPFSQSTLNNVTEQNYKNRESYPEDTVFYIPEDHKPGTFPKALSHGSFCPSGNSSVNWRTGSFHGPGHLSLRRENSHDSPKELKRRNSSSSLSSRLSIYDNVPGSILYSSSGELADLENEDIFPELDDILYHVKGMQRIVNQWSEKFSDEGDSDSALDSVSPCPSSPKQIHLDVDHDRRTPSDLDSTGNSLNEPEEPTDIPERRDSGVGASLTRCNRHRLRWHSFQSSHRPSLNSVSLQINCQSVAQMNLLQKYSLLKLTALLEKYTPSNKHGFSWAVPKFMKRIKVPDYKDRSVFGVPLTVNVQRSGQPLPQSIQQAMRYLRNHCLDQVGLFRKSGVKSRIQALRQMNESAEDNVNYEGQSAYDVADMLKQYFRDLPEPLMTNKLSETFLQIYQYVPKDQRLQAIKAAIMLLPDENREVLQTLLYFLSDVTAAVKENQMTPTNLAVCLAPSLFHLNTLKRENSSPRVMQRKQSLGKPDQKDLNENLAATQGLAHMIAECKKLFQVPEEMSRCRNSYTEQELKPLTLEALGHLNSDQPADYRHFLQDCVDGLFKEVKEKFKGWVSYPTSEQADLSYKKVSEGPPLRLWRSTIEVPAAPEEILKRLLKEQHLWDVDLLDSKVIEILDSQTEIYQYVQNSMAPHPARDYVVLRTWRTNLPRGACALLLTSVDHDRAPVAGVRVNVLLSRYLIEPCGSGKSKLTYMCRADLRGHMPEWYSKSFGHLCAAEVVKIRDSFSNQNTESKDTRSR
binding: binds
